Data reported in the supplement of paper PMC7661543.
± gives the standard deviation of the averaged measurements. The effect of the compound repeats well; differences between the knockouts mostly do not.

Assays:
HCC-38 = test: relative cell number vs DMSO control (72 h) (% of DMSO); higher = less growth inhibition (more cells)
Protocol: (§1)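 QMAP-Seq: a pool of 5 breast cancer cell lines (ZR-75-1, SKBR3, HCC-38, MDA-MB-231, BT-20), each carrying 12 doxycycline-inducible Cas9 sgRNA perturbations (11 knockouts plus non-targeting sgNT), was treated with compounds for 72 h at four 10-fold doses (10 nM-10 uM or 1 nM-1 uM range). Barcodes were amplified and sequenced, and cell number was interpolated from 293T spike-in standard curves. The result is expressed as % of the median of DMSO wells. Two biological replicates.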

MDA-MB-231 = test: as above
Protocol: as §1

[1] = sgRNA knockout: sgATF3, 1000 nM
[2] = sgRNA knockout: sgATF3, 10000 nM
[3] = sgRNA knockout: sgATF4, 1000 nM
[4] = sgRNA knockout: sgATF4, 10000 nM
[5] = sgRNA knockout: sgATF6, 1000 nM
[6] = sgRNA knockout: sgATF6, 10000 nM
[7] = sgRNA knockout: sgATG7, 1000 nM
[8] = sgRNA knockout: sgATG7, 10000 nM
[9] = sgRNA knockout: sgERN1, 1000 nM
[10] = sgRNA knockout: sgERN1, 10000 nM
[11] = sgRNA knockout: sgHSF1, 1000 nM
[12] = sgRNA knockout: sgHSF1, 10000 nM
[13] = sgRNA knockout: sgHSF2, 1000 nM
[14] = sgRNA knockout: sgHSF2, 10000 nM
[15] = sgRNA knockout: sgKEAP1, 100 nM
[16] = sgRNA knockout: sgKEAP1, 1000 nM
[17] = sgRNA knockout: sgKEAP1, 10000 nM
[18] = sgRNA knockout: sgNFE2L2, 10 nM
[19] = sgRNA knockout: sgNFE2L2, 100 nM
[20] = sgRNA knockout: sgNFE2L2, 1000 nM
[21] = sgRNA knockout: sgNFE2L2, 10000 nM
[22] = sgRNA knockout: sgSLC35F2, 10 nM
[23] = sgRNA knockout: sgSLC35F2, 100 nM
[24] = sgRNA knockout: sgSLC35F2, 1000 nM
[25] = sgRNA knockout: sgSLC35F2, 10000 nM
[26] = sgRNA knockout: sgXBP1, 1000 nM
[27] = sgRNA knockout: sgXBP1, 10000 nM

**Q.** With `O=C(O)C(Cc1c[nH]c2ccccc12)N1C(=O)c2ccccc2C1=O` (stereo not drawn) [RG108] as the molecule, how does the relative cell number (HCC-38; sgRNA knockout: sgATF3, 10 nM) read?
**A.** 87.9 ± 6.4

**Q.** And the relative cell number (HCC-38; sgRNA knockout: sgATF3, 100 nM)?
**A.** 92.7 ± 10

**Q.** And the relative cell number (HCC-38; [1])?
**A.** 94.9 ± 16

**Q.** And the relative cell number (HCC-38; [2])?
**A.** 99.5 ± 14

**Q.** And the relative cell number (HCC-38; sgRNA knockout: sgATF4, 10 nM)?
**A.** 87.7 ± 21

**Q.** What about the relative cell number (HCC-38; sgRNA knockout: sgATF4, 100 nM) of the same molecule?
**A.** 82.5 ± 1.5

**Q.** What about the relative cell number (HCC-38; [3]) of the same molecule?
**A.** 86.5 ± 7.4

**Q.** What about the relative cell number (HCC-38; [4]) of the same molecule?
**A.** 98.3 ± 4.4

**Q.** And the relative cell number (HCC-38; sgRNA knockout: sgATF6, 10 nM)?
**A.** 93.4 ± 4.4

**Q.** And the relative cell number (HCC-38; sgRNA knockout: sgATF6, 100 nM)?
**A.** 99.6 ± 8.6

**Q.** And the relative cell number (HCC-38; [5])?
**A.** 99.08 ± 0.48

**Q.** And the relative cell number (HCC-38; [6])?
**A.** 103 ± 14

**Q.** And the relative cell number (HCC-38; sgRNA knockout: sgATG7, 10 nM)?
**A.** 86.9 ± 6.2

**Q.** What about the relative cell number (HCC-38; sgRNA knockout: sgATG7, 100 nM) of the same molecule?
**A.** 86.6 ± 5.1

**Q.** What about the relative cell number (HCC-38; [7]) of the same molecule?
**A.** 94.4 ± 16

**Q.** And the relative cell number (HCC-38; [8])?
**A.** 91.8 ± 2.2

**Q.** And the relative cell number (HCC-38; sgRNA knockout: sgERN1, 10 nM)?
**A.** 87.9 ± 2.2

**Q.** What about the relative cell number (HCC-38; sgRNA knockout: sgERN1, 100 nM) of the same molecule?
**A.** 81.4 ± 4.5

**Q.** What about the relative cell number (HCC-38; [9]) of the same molecule?
**A.** 95.8 ± 22

**Q.** And the relative cell number (HCC-38; [10])?
**A.** 92.5 ± 13

**Q.** And the relative cell number (HCC-38; sgRNA knockout: sgHSF1, 10 nM)?
**A.** 101 ± 19

**Q.** And the relative cell number (HCC-38; sgRNA knockout: sgHSF1, 100 nM)?
**A.** 97.6 ± 3.2

**Q.** And the relative cell number (HCC-38; [11])?
**A.** 103.9 ± 0.48

**Q.** What about the relative cell number (HCC-38; [12]) of the same molecule?
**A.** 108 ± 26

**Q.** What about the relative cell number (HCC-38; sgRNA knockout: sgHSF2, 10 nM) of the same molecule?
**A.** 93.3 ± 3.8

**Q.** And the relative cell number (HCC-38; sgRNA knockout: sgHSF2, 100 nM)?
**A.** 89.5 ± 7

**Q.** And the relative cell number (HCC-38; [13])?
**A.** 98 ± 2.8

**Q.** What about the relative cell number (HCC-38; [14]) of the same molecule?
**A.** 104 ± 12

**Q.** And the relative cell number (HCC-38; sgRNA knockout: sgKEAP1, 10 nM)?
**A.** 86.1 ± 12

**Q.** What about the relative cell number (HCC-38; [15]) of the same molecule?
**A.** 94.2 ± 17

**Q.** And the relative cell number (HCC-38; [16])?
**A.** 113 ± 40

**Q.** And the relative cell number (HCC-38; [17])?
**A.** 96.4 ± 26

**Q.** And the relative cell number (HCC-38; [18])?
**A.** 92.4 ± 16

**Q.** And the relative cell number (HCC-38; [19])?
**A.** 85.5 ± 2.2

**Q.** What about the relative cell number (HCC-38; [20]) of the same molecule?
**A.** 85.1 ± 13

**Q.** What about the relative cell number (HCC-38; [21]) of the same molecule?
**A.** 101 ± 3.6

**Q.** And the relative cell number (HCC-38; [22])?
**A.** 88.5 ± 6.2

**Q.** What about the relative cell number (HCC-38; [23]) of the same molecule?
**A.** 84.7 ± 0.95

**Q.** And the relative cell number (HCC-38; [24])?
**A.** 84.1 ± 4.2

**Q.** What about the relative cell number (HCC-38; [25]) of the same molecule?
**A.** 98.3 ± 3.1

**Q.** What about the relative cell number (HCC-38; sgRNA knockout: sgXBP1, 10 nM) of the same molecule?
**A.** 88.2 ± 8.6

**Q.** What about the relative cell number (HCC-38; sgRNA knockout: sgXBP1, 100 nM) of the same molecule?
**A.** 87.2 ± 2

**Q.** And the relative cell number (HCC-38; [26])?
**A.** 88.7 ± 7.2

**Q.** What about the relative cell number (HCC-38; [27]) of the same molecule?
**A.** 102 ± 6

**Q.** And the relative cell number (MDA-MB-231; sgRNA knockout: sgATF3, 10 nM)?
**A.** 107 ± 25

**Q.** And the relative cell number (MDA-MB-231; sgRNA knockout: sgATF3, 100 nM)?
**A.** 74.2 ± 27

**Q.** What about the relative cell number (MDA-MB-231; [1]) of the same molecule?
**A.** 92.9 ± 5.1

**Q.** What about the relative cell number (MDA-MB-231; [2]) of the same molecule?
**A.** 120 ± 36

**Q.** And the relative cell number (MDA-MB-231; sgRNA knockout: sgATF4, 10 nM)?
**A.** 110 ± 10

**Q.** And the relative cell number (MDA-MB-231; sgRNA knockout: sgATF4, 100 nM)?
**A.** 72 ± 8.9

**Q.** What about the relative cell number (MDA-MB-231; [3]) of the same molecule?
**A.** 103 ± 21

**Q.** And the relative cell number (MDA-MB-231; [4])?
**A.** 72 ± 36

**Q.** And the relative cell number (MDA-MB-231; sgRNA knockout: sgATF6, 10 nM)?
**A.** 82.7 ± 0.95

**Q.** And the relative cell number (MDA-MB-231; sgRNA knockout: sgATF6, 100 nM)?
**A.** 102 ± 22

**Q.** What about the relative cell number (MDA-MB-231; [5]) of the same molecule?
**A.** 102 ± 10

**Q.** And the relative cell number (MDA-MB-231; [6])?
**A.** 92.8 ± 3.4

**Q.** What about the relative cell number (MDA-MB-231; sgRNA knockout: sgATG7, 10 nM) of the same molecule?
**A.** 79.7 ± 20

**Q.** And the relative cell number (MDA-MB-231; sgRNA knockout: sgATG7, 100 nM)?
**A.** 98.7 ± 2.1

**Q.** And the relative cell number (MDA-MB-231; [7])?
**A.** 74.1 ± 6.8

**Q.** And the relative cell number (MDA-MB-231; [8])?
**A.** 88.6 ± 17

**Q.** And the relative cell number (MDA-MB-231; sgRNA knockout: sgERN1, 10 nM)?
**A.** 80.4 ± 22

**Q.** And the relative cell number (MDA-MB-231; sgRNA knockout: sgERN1, 100 nM)?
**A.** 88 ± 16

**Q.** And the relative cell number (MDA-MB-231; [9])?
**A.** 99.9 ± 1.7

**Q.** What about the relative cell number (MDA-MB-231; [10]) of the same molecule?
**A.** 109 ± 15

**Q.** What about the relative cell number (MDA-MB-231; sgRNA knockout: sgHSF1, 10 nM) of the same molecule?
**A.** 72.8 ± 11

**Q.** What about the relative cell number (MDA-MB-231; sgRNA knockout: sgHSF1, 100 nM) of the same molecule?
**A.** 91.2 ± 12

**Q.** What about the relative cell number (MDA-MB-231; [11]) of the same molecule?
**A.** 83.9 ± 7.8

**Q.** And the relative cell number (MDA-MB-231; [12])?
**A.** 98.7 ± 37

**Q.** What about the relative cell number (MDA-MB-231; sgRNA knockout: sgHSF2, 10 nM) of the same molecule?
**A.** 85.1 ± 8.4

**Q.** And the relative cell number (MDA-MB-231; sgRNA knockout: sgHSF2, 100 nM)?
**A.** 77.8 ± 9.3

**Q.** And the relative cell number (MDA-MB-231; [13])?
**A.** 94.7 ± 22

**Q.** What about the relative cell number (MDA-MB-231; [14]) of the same molecule?
**A.** 111 ± 4.4

**Q.** And the relative cell number (MDA-MB-231; sgRNA knockout: sgKEAP1, 10 nM)?
**A.** 92.2 ± 19

**Q.** What about the relative cell number (MDA-MB-231; [15]) of the same molecule?
**A.** 101 ± 5.9

**Q.** What about the relative cell number (MDA-MB-231; [16]) of the same molecule?
**A.** 99.1 ± 9.5

**Q.** What about the relative cell number (MDA-MB-231; [17]) of the same molecule?
**A.** 97.7 ± 12

**Q.** And the relative cell number (MDA-MB-231; [18])?
**A.** 106 ± 26

**Q.** What about the relative cell number (MDA-MB-231; [19]) of the same molecule?
**A.** 86.2 ± 7.3

**Q.** And the relative cell number (MDA-MB-231; [20])?
**A.** 90.9 ± 15

**Q.** What about the relative cell number (MDA-MB-231; [21]) of the same molecule?
**A.** 95.2 ± 40

**Q.** And the relative cell number (MDA-MB-231; [22])?
**A.** 88.8 ± 0.91

**Q.** And the relative cell number (MDA-MB-231; [23])?
**A.** 90 ± 15

**Q.** What about the relative cell number (MDA-MB-231; [24]) of the same molecule?
**A.** 96.49 ± 0.43

**Q.** And the relative cell number (MDA-MB-231; [25])?
**A.** 103 ± 35

**Q.** What about the relative cell number (MDA-MB-231; sgRNA knockout: sgXBP1, 10 nM) of the same molecule?
**A.** 80.3 ± 9.9

**Q.** What about the relative cell number (MDA-MB-231; sgRNA knockout: sgXBP1, 100 nM) of the same molecule?
**A.** 90.8 ± 7.8

**Q.** What about the relative cell number (MDA-MB-231; [26]) of the same molecule?
**A.** 105 ± 7.9

**Q.** What about the relative cell number (MDA-MB-231; [27]) of the same molecule?
**A.** 103 ± 5.8
